Results from paper PMC11809377.

Target: T1, Hemagglutinin (HA)‐tagged TTK protein kinase (UniProt P35761)
T1 sequence: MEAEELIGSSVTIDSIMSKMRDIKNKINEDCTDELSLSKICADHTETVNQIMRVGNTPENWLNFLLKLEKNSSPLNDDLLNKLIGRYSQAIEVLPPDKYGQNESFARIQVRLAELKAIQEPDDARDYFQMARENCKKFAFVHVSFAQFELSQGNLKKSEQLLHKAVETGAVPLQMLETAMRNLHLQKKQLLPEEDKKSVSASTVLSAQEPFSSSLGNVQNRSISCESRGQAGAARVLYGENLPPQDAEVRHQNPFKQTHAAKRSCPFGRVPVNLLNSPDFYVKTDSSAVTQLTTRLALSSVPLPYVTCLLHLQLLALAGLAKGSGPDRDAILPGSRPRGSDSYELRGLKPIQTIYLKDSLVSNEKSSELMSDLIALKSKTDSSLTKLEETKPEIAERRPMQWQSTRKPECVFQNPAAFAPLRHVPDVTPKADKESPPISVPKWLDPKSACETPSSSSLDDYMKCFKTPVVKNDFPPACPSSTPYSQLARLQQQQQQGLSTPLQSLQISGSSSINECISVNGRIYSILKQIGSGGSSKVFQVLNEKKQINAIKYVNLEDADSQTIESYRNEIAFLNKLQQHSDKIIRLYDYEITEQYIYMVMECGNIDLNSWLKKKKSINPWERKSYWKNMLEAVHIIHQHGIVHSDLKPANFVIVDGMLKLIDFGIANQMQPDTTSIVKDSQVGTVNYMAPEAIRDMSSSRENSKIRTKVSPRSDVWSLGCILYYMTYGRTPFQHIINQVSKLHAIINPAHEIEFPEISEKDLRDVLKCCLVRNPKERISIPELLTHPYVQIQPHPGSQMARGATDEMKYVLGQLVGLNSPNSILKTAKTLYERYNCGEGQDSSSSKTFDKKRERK
Test: affinity purification with mass spectrometry; lysates of VSMCs transfected with HA‐tagged TTK constructs, immunoprecipitated with anti‐HA antibodies, SDS‐PAGE, trypsin digestion, LC‐MS/MS

B1: p120‐catenin (protein, UniProt P30999 1-938)
chain: MDDSEVESTASILASVKEQEAQFEKLTRALEEERRHVSAQLERVRVSPQDANSLMANGTLTRRHQNGRFVGDADLERQKFSDLKLNGPQDHNHLLYSTIPRMQEPGQIVETYTEEDPEGAMSVVSVETTDDGTTRRTETTVKKVVKTMTTRTVQPVPMGPDGLPVDASAVSNNYIQTLGRDFRKNGNGGPGPYVGQAGTATLPRNFHYPPDGYGRHYEDGYPGGSDNYGSLSRVTRIEERYRPSMEGYRAPSRQDVYGPQPQVRVGGSSVDLHRFHPEPYGLEDDQRSMGYDDLDYGMMSDYGTARRTGTPSDPRRRLRSYEDMIGEEVPPDQYYWAPLAQHERGSLASLDSLRKGMPPPSNWRQPELPEVIAMLGFRLDAVKSNAAAYLQHLCYRNDKVKTDVRKLKGIPILVGLLDHPKKEVHLGACGALKNISFGRDQDNKIAIKNCDGVPALVRLLRKARDMDLTEVITGTLWNLSSHDSIKMEIVDHALHALTDEVIIPHSGWEREPNEDCKPRHIEWESVLTNTAGCLRNVSSERSEARRKLRECDGLVDALIFIVQAEIGQKDSDSKLVENCVCLLRNLSYQVHREIPQAERYQEALPTVANSTGPHAASCFGAKKGKDEWFSRGKKPTEDPANDTVDFPKRTSPARGYELLFQPEVVRIYISLLKESKTPAILEASAGAIQNLCAGRWTYGRYIRSALRQEKALSAIAELLTSEHERVVKAASGALRNLAVDARNKELIGKHAIPNLVKNLPGGQQNSSWNFSEDTVVSILNTINEVIAENLEAAKKLRETQGIEKLVLINKSGNRSEKEVRAAALVLQTIWGYKELRKPLEKEGWKKSDFQVNLNNASRSQSSHSYDDSTLPLIDRNQKSDKKPDREEIPMSNMGSNTKSLDNNYSTLNERGDHNRTLDRSGDLGDMEPLKGAPLMQKI
- binding: binds

No constants are given. Whether binding was seen depends on the method and setting. In cells and extracts the contact can be indirect. Here binding means that the protein was enriched with, or labelled near, the bait; the list need not be complete. Where a sequence is shown, tags or fusion partners need not be part of it.
